Reference: PubChem BioAssay AID1347131 (National Center for Advancing Translational Sciences (NCATS), 2019)
Screen size: about 410,000 compounds; about 2,000 (0.49%) were called active. Inconclusive results, whose numbers are uncertain, are shown with a selection of clear calls. Calls follow the shape of the full dose curve; tested in HEK293 reporter line. A potency beside an inconclusive call is a rough fit, not a confirmed value.

Assay: qHTS Assay for Foot and Mouth Disease Virus Antivirals: Primary Screen against the MLPCN compound library; also: nearly all actives have a fitted effect of over 55% in size
Conditions: FMDV antiviral cell-based qHTS; activity, negative = inhibition: at 57.9 µM (top of the series)
Potency is read from the fitted curve at half-maximal effect.

| SMILES | Potency | activity, negative = inhibition |
| --- | --- | --- |
| CCOC(=O)/C=C/C(=O)Nc1cc(S(=O)(=O)Nc2ccc(OC)cc2)ccc1N1CCOCC1 | inconclusive: 31.6 µM [inhibitor, single point] | – |
| O=S(=O)(Oc1ccccc1N1CCCCC1)c1ccccc1 | inconclusive: 3.98 µM [inhibitor, partial curve] | – |
| O=C(O)c1ccccc1-c1nc2ccccc2n1-c1ccccc1 | – | inactive: -31.7% |
| Cc1cccc(C)c1-n1nnnc1C(c1ccnc2ccccc12)N(CCN(C)C)Cc1ccccc1 (stereo unspecified) | – | inactive: -41.8% |
| CC(C)c1ccc(NC(=O)NC2CCN(CC(=O)Nc3cccc4ccccc34)CC2)cc1 | inconclusive: 20 µM [inhibitor, partial curve, poor fit] | – |
| Cc1ccc(Nc2nnc(-c3ccc(C)c(S(=O)(=O)N4CCOCC4)c3)c3ccccc23)c(C)c1 | inconclusive: 7.94 µM [inhibitor, partial curve] | – |
| Cc1oc(-c2ccc(Cl)cc2)nc1CN1CCC(C(=O)NCCCN2CCN(c3cccc(Cl)c3)CC2)CC1 | inconclusive: 25.1 µM [inhibitor, partial curve, poor fit] | – |
| CC1(C)CC(C(CCN(Cc2ccccc2)C(=O)c2ccco2)c2ccc(F)cc2)CCO1 (stereo unspecified) | inconclusive: 14.1 µM [inhibitor, partial curve, poor fit] | – |
| CC(=O)N(Cc1ccc(F)cc1)C1=C(NCCc2ccccc2)C(=O)c2ccccc2C1=O | inconclusive: 25.1 µM [inhibitor, partial curve, poor fit] | – |
| CSc1ccc(/C=C/c2nc3ccccc3n2S(=O)(=O)c2cccc(Cl)c2)cc1 | inconclusive: 14.1 µM [inhibitor, single point] | – |
| O=C(/C=C/Nc1ccccc1Br)c1ccccn1 | inconclusive: 2.24 µM [inhibitor, full curve, poor fit] | – |
| O=C(O)c1ccc(-c2nnc(-c3ccccc3)o2)cc1 | inconclusive: 35.5 µM [inhibitor, single point] | – |
| COc1ccc(CCNC(=O)C(=O)NCC(c2cccs2)S(=O)(=O)c2ccc(C)cc2)cc1 (stereo unspecified) | inconclusive: 20 µM [inhibitor, partial curve, poor fit] | – |
| CN=c1scc(C)n1/N=C/c1ccc2c(c1)OCO2 | inconclusive: 15.8 µM [inhibitor, single point] | – |
| Cc1cc(Nc2ccc(Cl)cc2)nc(NCc2ccccc2)n1 | inconclusive: 31.6 µM [inhibitor, partial curve, poor fit] | – |
| Cc1ccc2c(c1)nnn2C1CCN(CC(=O)Nc2ccc(F)cc2)CC1 | inconclusive: 25.1 µM [inhibitor, partial curve, poor fit] | – |
| COc1cc2c(cc1OC)CN(c1ccc(-c3ccccc3OC)nn1)CC2 | inconclusive: 35.5 µM [inhibitor, single point] | – |
| COc1ccc(OC)c(-c2csc(NC(=O)C3c4ccccc4Oc4ccccc43)n2)c1 | inconclusive: 2.51 µM [inhibitor, partial curve, poor fit] | – |
| CC(=O)OC1(c2ccc(C)cc2)CN2CCC1c1ccccc12 (stereo unspecified) | inconclusive: 25.1 µM [inhibitor, single point] | – |
| CCN1/C(=C/C=C/C=C/C=C/c2sc3ccccc3[n+]2CC)Sc2ccccc21 | inconclusive: 10 µM [inhibitor, partial curve, poor fit] | – |
| Cc1c(O)c(O)cc2c1CC=C1[C@]3(C)CC[C@]4(C)CC[C@@](C)(C(=O)O)CC4[C@]3(C)CC[C@]12C (stereo partly specified) | inconclusive: 25.1 µM [inhibitor, partial curve, poor fit] | – |

| SMILES | Potency | activity, negative = inhibition |
| --- | --- | --- |
| O=C(NCc1nc2ccccc2[nH]1)C1=C[C@H](C2CCCCC2)C[C@H](OCc2ccc(CO)cc2)O1 | inconclusive: 15.8 µM [inhibitor, single point] | – |
| COc1cc(NC(=O)CSc2nc3ccccc3nc2Cc2ccc(Cl)cc2)cc(OC)c1 | inconclusive: 2.51 µM [inhibitor, partial curve, poor fit] | – |
| COc1ccc2cc([C@@H](C)C(=O)O)ccc2c1 | inconclusive: 2.24 µM [inhibitor, partial curve, poor fit] | – |
| CCOC(=O)c1c(NC(=O)C2COc3ccccc3O2)sc(C)c1C (stereo unspecified) | inconclusive: 25.1 µM [inhibitor, partial curve, poor fit] | – |
| O=C(O)c1cccc(N/N=C/c2cccs2)c1 | inconclusive: 2.24 µM [inhibitor, partial curve, poor fit] | – |
| O=C(Nc1ccc(Cl)cc1)Nc1ccccc1C(=O)O | active: 10 µM | – |
| Cc1ccc(N(Cc2cc(=O)[nH]c3ccccc23)C(=O)CCl)cc1 | active: 20 µM | – |
| CCOc1ncccc1C(=O)Nc1cc(S(=O)(=O)N(CC)CC)ccc1N1CCOCC1 | – | inactive: -14.1% |
| COc1ccccc1NS(=O)(=O)c1cccc(C(=O)N/N=C/c2ccc(N3CCOCC3)cc2)c1 | – | inactive: -31.5% |
| N#C/C(=C(/O)CCl)c1nc2ccccc2[nH]1 | inconclusive: 35.5 µM [inhibitor, single point] | – |
| COc1ccc(-c2cc(C(=O)N3CCCC3)no2)cc1 | inconclusive: 17.8 µM [inhibitor, single point] | – |
| CC(C)(C)c1csc(NC(=O)Nc2ccccc2)n1 | inconclusive: 35.5 µM [inhibitor, single point] | – |
| CC(C)c1ccc(NC(=O)c2cc(S(=O)(=O)N(C)C3CCCCC3)ccc2F)cc1 | – | inactive: -32.3% |
| COc1cc(C[C@@H]2C(=O)OC[C@H]2Cc2ccc(OC)c(OC)c2)ccc1O | inconclusive: 20 µM [inhibitor, partial curve, poor fit] | – |
| Cc1ccnc(N/C=C/C(=O)c2ccc(Br)cc2)c1 | inconclusive: 17.8 µM [inhibitor, single point] | – |
| Cc1cccc(NCc2ccc(O)c3ncccc23)c1 | inconclusive: 12.6 µM [inhibitor, partial curve, poor fit] | – |
| CCCCCN=Cc1c(C)[nH]n(-c2nc3ccccc3s2)c1=O | inconclusive: 28.2 µM [inhibitor, single point] | – |
| Cc1ccc(S(=O)(=O)Nc2nc(C)c(C)s2)cc1 | – | inactive: 101% |
| O=C(Nc1nc2cc3c(cc2s1)OCCO3)C1=COCCO1 | inconclusive: 3.98 µM [inhibitor, full curve, poor fit] | – |
| COc1ccc(NC(=O)CN(C)S(=O)(=O)c2ccc3c(c2)CCCN3C(C)=O)cc1 | inconclusive: 15.8 µM [inhibitor, partial curve] | – |
| CCOC(=O)[C@]12Cc3cc(OC)ccc3[C@H]1N(C(C)C)C(=O)c1ccccc12 | inconclusive: 31.6 µM [inhibitor, partial curve, poor fit] | – |

Single entries from the results shown.
Under Potency, `COc1ccc(NC(=O)CN(C)S(=O)(=O)c2ccc3c(c2)CCCN3C(C)=O)cc1` is entered as inconclusive: 15.8 µM [inhibitor, partial curve]
Under Potency, `COc1cc(C[C@@H]2C(=O)OC[C@H]2Cc2ccc(OC)c(OC)c2)ccc1O` is entered as inconclusive: 20 µM [inhibitor, partial curve, poor fit]
Under Potency, `CCCCCN=Cc1c(C)[nH]n(-c2nc3ccccc3s2)c1=O` is entered as inconclusive: 28.2 µM [inhibitor, single point]
Under Potency, `COc1ccc2cc([C@@H](C)C(=O)O)ccc2c1` is entered as inconclusive: 2.24 µM [inhibitor, partial curve, poor fit]

Next part:

| SMILES | Potency | activity, negative = inhibition |
| --- | --- | --- |
| CCC(=O)OCCNc1cc(Sc2nc3ccccc3s2)c2nonc2c1[N+](=O)[O-] | inconclusive: 25.1 µM [inhibitor, partial curve, poor fit] | – |
| Cc1ccccc1NC(=O)c1cccc2c1C(=O)N(C1CCCCC1)C2 | inconclusive: 8.91 µM [inhibitor, partial curve] | – |
| CCc1ccccc1NC(=O)CN(c1ccccc1)S(=O)(=O)c1ccsc1C(=O)OC | inconclusive: 15.8 µM [inhibitor, partial curve] | – |
| Cc1ccc(N/C=C/C(=O)c2cccs2)cc1 | inconclusive: 7.94 µM [inhibitor, partial curve, poor fit] | – |
| Clc1ccc(-c2cn3cc(Br)ccc3n2)cc1Cl | active: 14.1 µM | – |
| COc1cccc(-c2nc(NC3CCCC3)c3ccccc3n2)c1O | inconclusive: 28.2 µM [inhibitor, partial curve, poor fit] | – |
| COC(=O)c1ccc2nc(NC(=O)C(C)(C)C)sc2c1 | inconclusive: 14.1 µM [inhibitor, partial curve, poor fit] | – |
| CCOc1cc(/C=C2\C(=O)N(Cc3ccc(C)cc3)C(C)=C2C(=O)OC)ccc1O | inconclusive: 35.5 µM [inhibitor, single point] | – |
| Cc1c(NN=C(C#N)C#N)c(=O)n(-c2ccccc2)n1C | inconclusive: 14.1 µM [inhibitor, partial curve, poor fit] | – |
| COC(=O)c1ccc(CN2CCOc3ccc(CN4CCC(O)(c5cccnc5)CC4)cc3C2)cc1 | inconclusive: 17.8 µM [inhibitor, partial curve, poor fit] | – |
| [O-][n+]1c(/C=C/c2ccccc2)ccc2ccccc21 | inconclusive: 39.8 µM [inhibitor, single point] | – |
| CCn1c(=O)c(C(=O)NCc2ccc(OC)c(OC)c2)c(O)c2ccccc21 | – | inactive: -36.9% |
| Cc1ccc(SC(C)c2nc(-c3cccnc3)no2)cc1 (stereo unspecified) | inconclusive: 3.55 µM [inhibitor, full curve] | – |
| O=C(CN1C(=O)C2C3C=CC(C4CC34)C2C1=O)Nc1cccc2ncccc12 (stereo unspecified) | inconclusive: 3.16 µM [inhibitor, full curve] | – |
| CCOC(=O)NC(=O)/C(C#N)=N/Nc1c(F)cccc1F | – | inactive: -29.8% |
| Cc1cc(-c2ccc(C)c(S(=O)(=O)N3CCC(C)CC3)c2)on1 | inconclusive: 6.31 µM [inhibitor, partial curve] | – |
| COc1ccc(C(=O)CSc2nnc(CNc3nc(-c4ccccc4)cs3)n2C)cc1 | inconclusive: 39.8 µM [inhibitor, partial curve, poor fit] | – |
| C=CCn1c(NCCc2ccccc2)nc2c1c(=O)n(C)c(=O)n2C | inconclusive: 25.1 µM [inhibitor, partial curve, poor fit] | – |
| O=C1/C(=C/c2ccncc2)CCC/C1=C\c1ccncc1 | inconclusive: 14.1 µM [inhibitor, partial curve, poor fit] | – |
